Here are results for one molecule from publication PMC7211001.

Results are given in words; binding and its absence hold for the method and conditions named. In cells and extracts the contact can be indirect. Some binding calls cover weakened binding; strength is not graded here. Tags and fused reporters may be left off the sequences shown.

For assay [1], the target named is Flag-p62 wt (sequestosome 1; Sqstm1) (UniProt Q64337). Put plainly: co-IP; HEK293T cells co-transfected with Flag-p62 (wt or Δ69-251) and HA-ATF2 for 24 h; with or without isoproterenol (10 μM, half an hour before collection); 1500 μg lysate with anti-Flag-agarose overnight; blot for HA and Flag.
The target of the next assay is Flag-p62^Δ69-251 (UniProt Q64337). The assay is described as above.

B1: HA-ATF2 (activating transcription factor 2) (protein, UniProt P16951 1-487)
chain: MSDDKPFLCTAPGCGQRFTNEDHLAVHKHKHEMTLKFGPARNDSVIVADQTPTPTRFLKNCEEVGLFNELASPFENEFKKASEDDIKKMPLDLSPLATPIIRSKIEEPSVVETTHQDSPLPHPESTTSDEKEVPLAQTAQPTSAIVRPASLQVPNVLLTSSDSSVIIQQAVPSPTSSTVITQAPSSNRPIVPVPGPFPLLLHLPNGQTMPVAIPASITSSNVHVPAAVPLVRPVTMVPSVPGIPGPSSPQPVQSEAKMRLKAALTQQHPPVTNGDTVKGHGSGLVRTQSEESRPQSLQQPATSTTETPASPAHTTPQTQNTSGRRRRAANEDPDEKRRKFLERNRAAASRCRQKRKVWVQSLEKKAEDLSSLNGQLQSEVTLLRNEVAQLKQLLLAHKDCPVTAMQKKSGYHTADKDDSSEDLSVPSSPHTEAIQHSSVSTSNGVSSTSKAEAVATSVLTQMADQSTEPALSQIVMAPPSQAQPSGS
On to B1, for which the binding result (in assay [1]; with Flag-p62^Δ69-251) was “binds” throughout.
